Consider 3 molecules from publication PMC6201373.

Like-named read-outs stand apart in the source and are kept apart here. Results are given in words; binding and its absence hold for the method and conditions named. Binding seen in cells or lysates may run through a third protein. A result given as binding can be weak or reduced; the word gives no strength.

The target in assay [1] is Unc‐51‐like kinase 1 (ULK1) (rat (endogenous in neonatal SD rat cardiomyocytes)) (UniProt D3ZMG0). The assay can be described thus: co-IP; whole-cell lysates of rat neonatal cardiomyocytes (OGD 4 h; treated with PEDF, AICAR, Compound C, Go6976, shULK1 or mULK1 Δ654-828 as indicated) immunoprecipitated overnight at 4°C with anti-ULK1 antibody, protein A/G agarose beads, washed 3 times with lysis buffer, immunoblot; rabbit normal IgG as negative control. For orientation: In western blotting, separated proteins are transferred to a membrane and probed.

For assay [2] the target is unchanged. Described as above. The source holds these as a separate data set.

For the molecule “phospho‐PKCα (p‐PKCα, Ser 657) (from UniProt P05696 1-672) (enzyme)”, the binding entry in assay [1] is “binds”. “protein kinase Cα (PKCα) (from UniProt P05696 1-672) (enzyme)”: the binding result in assay [1] was “binds”.

B1: 14‐3‐3τ (protein, UniProt P68255 1-245)
chain: MEKTELIQKAKLAEQAERYDDMATCMKAVTEQGAELSNEERNLLSVAYKNVVGGRRSAWRVISSIEQKTDTSDKKLQLIKDYREKVESELRSICTTVLELLDKYLIANATNPESKVFYLKMKGDYFRYLAEVACGDDRKQTIENSQGAYQEAFDISKKEMQPTHPIRLGLALNFSVFYYEILNNPELACTLAKTAFDEAIAELDTLNEDSYKDSTLIMQLLRDNLTLWTSDSAGEECDAAEGAEN
For B1, the binding result in assay [2] is recorded as “binds”.
